Structures were worked out from names or drawings and are uncertain.
How the values were obtained:
[1] = biological target: AKT1 E17K (Homo sapiens, UniProt P31749, E17K); assay: Live cell AKT1 E17K target engagement by NanoBRET competitive probe displacement; conditions: read-out: AKT1 E17K IC50, HEK293 cells transfected with kinase-NanoLuciferase fusion, 2 h at 37° C.
Method: (§1) Determining Live Cell AKT1 E17K, AKT1 WT, and AKT2 Target Engagement by NanoBRET Competitive Probe Displacement.
(§2) Live cell target engagement assays were performed as described (Vasta, J. D. et al. Cell Chem Biol 2018, 25(11), 206-214). Briefly, HEK293 cells were transfected with plasmids encoding kinase-NanoLuciferase fusion proteins overnight. Cells were then treated with serial dilutions of compound and an ˜EC50 concentration of fluorescently-tagged ATP-competitive tracer (Promega). After incubation for 2 h at 37° C., luciferase substrate and extracellular luciferase inhibitor were added to all wells, and luminescent intensity at 460 nm and 600 nm were measured on a multimode plate-reader. The ratio of E600/E460 was calculated to give the tracer engagement signal (BRET). IC50 values were calculated by fitting BRET values to a log(inhibitor) vs. response Hill equation.

Chains of the proteins cited; added tags and fusions are not shown. Lines headed by an entry give the natural chain unless they say otherwise; changes in a name come on top.
UniProt P31749, whole entry: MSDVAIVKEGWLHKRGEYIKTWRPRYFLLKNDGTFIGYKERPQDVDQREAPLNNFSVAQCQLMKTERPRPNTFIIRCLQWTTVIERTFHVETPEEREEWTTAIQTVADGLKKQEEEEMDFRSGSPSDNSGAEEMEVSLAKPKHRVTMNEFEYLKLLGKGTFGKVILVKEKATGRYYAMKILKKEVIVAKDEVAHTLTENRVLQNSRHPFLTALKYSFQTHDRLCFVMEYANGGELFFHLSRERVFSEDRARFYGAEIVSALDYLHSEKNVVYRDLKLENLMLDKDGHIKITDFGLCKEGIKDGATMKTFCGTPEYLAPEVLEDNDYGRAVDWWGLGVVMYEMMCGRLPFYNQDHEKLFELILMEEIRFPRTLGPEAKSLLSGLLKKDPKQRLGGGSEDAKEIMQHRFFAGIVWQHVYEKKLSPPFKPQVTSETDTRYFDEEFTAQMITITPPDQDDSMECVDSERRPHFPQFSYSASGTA
UniProt P31749, whole entry E17K: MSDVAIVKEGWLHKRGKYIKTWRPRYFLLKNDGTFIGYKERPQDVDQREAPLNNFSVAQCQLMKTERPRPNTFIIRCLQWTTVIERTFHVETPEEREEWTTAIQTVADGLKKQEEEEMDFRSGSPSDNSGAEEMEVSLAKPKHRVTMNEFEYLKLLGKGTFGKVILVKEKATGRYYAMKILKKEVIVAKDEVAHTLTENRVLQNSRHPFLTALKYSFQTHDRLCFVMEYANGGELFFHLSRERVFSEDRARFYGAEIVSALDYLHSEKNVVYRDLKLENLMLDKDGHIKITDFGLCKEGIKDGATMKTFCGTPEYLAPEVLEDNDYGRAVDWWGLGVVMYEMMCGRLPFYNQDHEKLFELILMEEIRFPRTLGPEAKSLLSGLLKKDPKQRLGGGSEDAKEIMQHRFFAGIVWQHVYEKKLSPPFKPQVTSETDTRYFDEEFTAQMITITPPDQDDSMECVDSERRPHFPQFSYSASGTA
UniProt P31751, whole entry: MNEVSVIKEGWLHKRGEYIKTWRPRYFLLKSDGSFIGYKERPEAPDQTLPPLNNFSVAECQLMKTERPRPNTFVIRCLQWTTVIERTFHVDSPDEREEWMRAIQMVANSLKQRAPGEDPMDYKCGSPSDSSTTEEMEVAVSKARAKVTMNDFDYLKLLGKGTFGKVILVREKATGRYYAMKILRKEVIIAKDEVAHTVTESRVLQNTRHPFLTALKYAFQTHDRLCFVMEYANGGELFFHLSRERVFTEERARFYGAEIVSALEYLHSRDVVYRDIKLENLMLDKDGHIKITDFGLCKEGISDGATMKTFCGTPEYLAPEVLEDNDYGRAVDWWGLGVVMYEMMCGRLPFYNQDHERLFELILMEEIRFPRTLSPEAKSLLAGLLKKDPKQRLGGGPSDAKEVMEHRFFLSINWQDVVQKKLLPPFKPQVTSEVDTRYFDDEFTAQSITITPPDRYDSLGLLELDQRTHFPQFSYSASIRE

[2] = biological target: AKT2 (Homo sapiens, UniProt P31751); assay: Live cell AKT2 target engagement by NanoBRET competitive probe displacement; conditions: read-out: AKT2 IC50, HEK293 cells transfected with kinase-NanoLuciferase fusion, 2 h at 37° C.
Method: as §1, §2

[3] = biological target: AKT1 WT (Homo sapiens, UniProt P31749); assay: Live cell AKT1 WT target engagement by NanoBRET competitive probe displacement; conditions: read-out: AKT1 WT IC50, HEK293 cells transfected with kinase-NanoLuciferase fusion, 2 h at 37° C.
Method: as §1, §2

[4] = system: LAPC4 prostate cancer cells; assay: Antiproliferative effects in LAPC4 cells (CellTiter Glo); conditions: read-out: LAPC4 proliferation IC50, LAPC4 cells (AKT1 E17K allele), 72 h
Method: Antiproliferative Effects in LAPC4 Cells.
LAPC4 prostate cancer cells (Klein, K. A. et al. Nat Med 1997, 3, 402-408), which express the AKT1 E17K allele, were grown in IMDM media (Hyclone) supplemented with 12% FBS+1% P/S. To assess compound effects on growth, 1,000 cells/well were seeded in 384 well assay plates, incubated with compound dilutions dissolved in DMSO. After 72 h, intracellular ATP content was assessed with CellTiter Glo reagent (Promega) according to the manufacturer's instructions. IC50 values were calculated by fitting luminescence values to a log(inhibitor) vs. response Hill equation.

C=CC(=O)N1CCC(N[C@H]2CCc3cc(-n4c(-c5cccnc5N)nc5ccc(-n6ccc(C(F)F)n6)nc54)ccc32)CC1
IC50 [1]: 16.7 nM | IC50 [2]: 69.9 nM | IC50 [3]: 215 nM | IC50 [4]: 161 nM

Reference: US12570655B2, “Cysteine covalent modifiers of AKT1 and uses thereof” (Terremoto Biosciences, Inc., priority 2023, dated 2026)
